About 6,100 (1.1%) of roughly 580,000 compounds were called active. The shares of active, inactive and inconclusive entries below differ from those in the screen. The call rests on the fitted dose curve; in most records, active means well fitted inhibition curve with a large enough effect; inconclusive means small, poorly fitted or top-dose-only effect, or another doubt; inactive means no such curve, though single readings can be large or run the other way. Potencies of inconclusive entries are doubtful fits and often do not repeat.
Molecular target: Polyunsaturated fatty acid lipoxygenase ALOX12 (Homo sapiens) (UniProt P18054)
Assay: Primary qHTS assay for inhibitors of human arachidonate 12S-lipoxygenase (ALOX12): Round 2
Details: purified 12hLO, xylenol orange hydroperoxide absorbance; activity change, negative = inhibition: at 108 µM (top of the series) unless noted
Summary of the method: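 Purified human 12hLO (150 nM final) in 25 mM Hepes, 0.01% Triton X-100, pH 7.0 was preincubated 15 min at room temperature with compound. Then 40 uM arachidonic acid was added, 30 min. Hydroperoxide was read by Fe-XO absorbance ratio 573/405 nm.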
On the % scale 0 is the no-effect control and ±100 the full control effect; potency means the concentration at half of the fitted maximal effect.

Amino acid sequences for entries named in this document (tags omitted). A change or cut given only in a name is not applied to a line headed by its entry.
UniProt P18054: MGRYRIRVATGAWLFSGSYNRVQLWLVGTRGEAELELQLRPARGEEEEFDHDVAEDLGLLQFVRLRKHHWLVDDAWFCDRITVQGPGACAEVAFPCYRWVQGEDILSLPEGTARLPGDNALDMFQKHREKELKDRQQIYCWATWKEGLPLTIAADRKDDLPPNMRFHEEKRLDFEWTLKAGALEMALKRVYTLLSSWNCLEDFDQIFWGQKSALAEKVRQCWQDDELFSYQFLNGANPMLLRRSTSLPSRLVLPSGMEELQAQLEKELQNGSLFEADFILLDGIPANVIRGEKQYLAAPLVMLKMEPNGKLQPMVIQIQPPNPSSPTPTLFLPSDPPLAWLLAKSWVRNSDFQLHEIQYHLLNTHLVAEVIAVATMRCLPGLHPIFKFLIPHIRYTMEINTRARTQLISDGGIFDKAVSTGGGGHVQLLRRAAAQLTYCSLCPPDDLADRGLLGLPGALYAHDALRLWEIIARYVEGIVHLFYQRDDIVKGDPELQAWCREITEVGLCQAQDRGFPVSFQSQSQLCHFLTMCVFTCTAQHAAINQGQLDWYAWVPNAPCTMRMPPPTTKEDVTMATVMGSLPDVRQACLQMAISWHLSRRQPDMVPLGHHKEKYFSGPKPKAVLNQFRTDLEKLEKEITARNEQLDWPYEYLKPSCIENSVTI

Compound	Potency	activity change, negative = inhibition
O=C(Nc1cccc(F)c1)c1nn(Cc2ccccc2)c(=O)c2ccccc12	inconclusive: 4.47 µM [inhibitor, full curve, poor fit]	–
S=C(NCCc1ccccc1)NC1CCCCCC1	inconclusive: 56.2 µM [inhibitor, partial curve, poor fit]	–
COc1cccc(-c2cc(C(=O)NCc3cccnc3)c3c(c2)N(C)CCO3)c1OC	–	inactive: 13.3% [at 176 µM]
COc1ccc2c(c1)CCc1cn3nc(C)cc3nc1-2	inconclusive: 70.8 µM [inhibitor, partial curve, poor fit]	–
Cc1ccc(NC(=O)CN(c2ccc(Cl)cc2)S(=O)(=O)c2cc([N+](=O)[O-])ccc2Cl)cc1	inconclusive: 50.1 µM [inhibitor, full curve, poor fit]	–
CN(Cc1ccccc1)C(=O)C1CCCN(Cc2ccccc2C(F)(F)F)C1 (stereo not given)	inconclusive: 0.251 µM [inhibitor, full curve, poor fit]	–
COc1ccc(N(CC(=O)Nc2ccccc2C(=O)NCC2CCCO2)S(C)(=O)=O)cc1OC (stereo not given)	inconclusive: 44.7 µM [inhibitor, partial curve, poor fit]	–
Cc1ccc(/C=N\n2c(-c3ccccc3)n[nH]c2=S)s1	inconclusive: 44.7 µM [inhibitor, partial curve, poor fit]	–
Cc1ccc(S(=O)(=O)Nc2nc(C)c(C(=O)NNS(=O)(=O)c3ccccc3)s2)cc1	inconclusive: 35.5 µM [inhibitor, partial curve, poor fit]	–
CCOC(=O)C1=C(C)N=C2SC=C(CC(=O)Nc3ccc(C)c(C)c3)N2C1c1cccc(OC)c1 (stereo not given)	–	inactive: 20.2%
CCC(NC(=O)C1CCN(C(=O)c2cccc3ccccc23)CC1)c1ccc(Cl)cc1 (stereo not given)	inconclusive: 63.1 µM [inhibitor, partial curve, poor fit]	–
COc1ccc(/C=N/Nc2cc(N3CCCC3)nc(N3CCCC3)n2)cc1	inconclusive: 89.1 µM [inhibitor, single point]	–
ClC(Cl)(Cl)C1=NCc2nnn(Cc3ccccc3)c2N1	inconclusive: 2.82 µM [inhibitor, partial curve, poor fit]	–
CC(C)CNc1oc(/C=C/c2cccs2)nc1C#N	inconclusive: 28.2 µM [inhibitor, partial curve, poor fit]	–
CN(C(=O)CSc1nc(C2CCCC2)nc2c1c(=O)n(C)c(=O)n2C)c1ccccc1	inconclusive: 5.01 µM [inhibitor, full curve, poor fit]	–
c1cncc(CNc2ncncc2-c2ccoc2)c1	inconclusive: 11.2 µM [inhibitor, full curve, poor fit]	–
CC(C)N(C(=O)COC(=O)c1cc(=O)c2ccccc2o1)C(C)C	–	inactive: -5.53%
CC(NC(=O)COC(=O)c1ccc2c(=O)n3c(nc2c1)CCCCC3)c1ccccc1 (stereo not given)	–	inactive: -3.53%
CCOC(=O)C1=C(c2ccccc2)OC(N)=C(C#N)C1C1CCCCC1 (stereo not given)	inconclusive: 100 µM [inhibitor, single point]	–
Cc1ccc(NC(=O)NC(=O)CN2CCN(c3ccc(O)cc3)CC2)c(C)c1	inconclusive: 50.1 µM [inhibitor, partial curve, poor fit]	–

3 neighbouring records out of the list so far, quoted:
Compound	Potency	activity change, negative = inhibition
c1cncc(CNc2ncncc2-c2ccoc2)c1	inconclusive: 11.2 µM [inhibitor, full curve, poor fit]	–
CC(C)N(C(=O)COC(=O)c1cc(=O)c2ccccc2o1)C(C)C	–	inactive: -5.53%
CC(NC(=O)COC(=O)c1ccc2c(=O)n3c(nc2c1)CCCCC3)c1ccccc1 (stereo not given)	–	inactive: -3.53%

The list goes on.

Compound	Potency	activity change, negative = inhibition
Cc1c(-c2ccccc2)oc2c(C(=O)N3CCCC(C)C3)cccc2c1=O (stereo not given)	inconclusive: 31.6 µM [inhibitor, single point]	–
CCCCc1cc(=O)oc2c(C)c(OCC)ccc12	–	inactive: -10.3%
CC1CCCC(C)N1CCNC(=O)Nc1ccc(Cl)cc1 (stereo not given)	inconclusive: 4.47 µM [inhibitor, full curve, poor fit]	–
CC(=O)Nc1ccc(N2C(C(C)=O)=NN(c3ccc(Cl)cc3)C2c2sccc2C)cc1 (stereo not given)	inconclusive: 44.7 µM [inhibitor, partial curve, poor fit]	–
COCC(=O)N[C@@H]1CN(C(=O)c2ccoc2)CC[C@@H]1c1nc(C)no1	–	inactive: 80.8%
CC(C)Oc1cccc(C(=O)NC(=S)N2CCN(c3ccc(C(F)(F)F)cc3[N+](=O)[O-])CC2)c1	inconclusive: 25.1 µM [inhibitor, partial curve, poor fit]	–
CC(Sc1nnnn1Cc1ccccc1)C(=O)c1cccc(Cl)c1 (stereo not given)	inconclusive: 44.7 µM [inhibitor, partial curve, poor fit]	–
CCCOc1ccccc1Oc1ncccc1CNC(=O)Nc1ccc2c(c1)OCCCO2	inconclusive: 89.1 µM [inhibitor, single point]	–
CC(=O)c1c(N2CCN(c3ccccn3)CC2)nc(=S)n(-c2ccccc2)c1C	inconclusive: 44.7 µM [inhibitor, partial curve, poor fit]	–
Cc1ncc2c(c1CNC(=O)C1CCc3ccccc3C1)CCNC2 (stereo not given)	–	inactive: 1.31%
Cc1cc(C)cc(NC(=O)CSCc2cc(=O)n3oc(C)cc3n2)c1	inconclusive: 2.82 µM [inhibitor, full curve, poor fit]	–
CCOC(=O)c1cnc2c(OC)cccc2c1N1CCN(c2ccc(OC)cc2)CC1	–	inactive: 30.3%
c1ccc(N2CCN(c3nc(NCc4ccco4)c4ccccc4n3)CC2)cc1	inconclusive: 44.7 µM [inhibitor, partial curve, poor fit]	–
C/C(=N/Nc1ccc(S(N)(=O)=O)cc1[N+](=O)[O-])c1ccc(C(C)(C)C)cc1	inconclusive: 126 µM [inhibitor, single point]	–
OC(c1ccccc1)c1nc2ccccc2s1 (stereo not given)	–	inactive: 0%
Cc1ccc(C(NC(=O)CSc2nnnn2C2CCCCC2)c2cccs2)cc1 (stereo not given)	–	inactive: 0.898%
COc1ccc(-n2nc(C(=O)NCC(=O)N3CCN(c4ccccc4OC)CC3)c3ccccc3c2=O)c(OC)c1	inconclusive: 141 µM [inhibitor, single point]	–
Cc1ccc(NC(=O)COc2coc(CN3CCc4ccccc43)cc2=O)cc1Cl	inconclusive: 44.7 µM [inhibitor, partial curve, poor fit]	–
Cc1cc(C)cc(NC(=O)CCn2c(=O)n(C)c3ccccc32)c1	–	inactive: 35.9%
COc1ccc2ncccc2c1Cc1c(OC)ccc2ncccc12	inconclusive: 70.8 µM [inhibitor, partial curve, poor fit]	–
